From patent US10556924 (dated 2020)

Assay: general procedure: Fmoc solid-phase peptide synthesis; CTC resin
Settings: whole synthesis

Substance: Cyclo[Phe-{4-(OCO—NH—CH2—CH2—NH2) Pro}-Phg-DTrp-Lys-Tyr(Bzl)]
- final purity (method not given): 99.9%
